{"source": "PubChem BioAssay AID540303", "about": "(National Center for Advancing Translational Sciences (NCATS), 2011)", "note": "Among all 330,000 compounds or so, about 1,000 (0.3%) were called active. The inconclusive results got no clear call from the source; some entries with a clear call stand among them for comparison. Calls follow the shape of the dose curve; as a rule, active = well fitted inhibition curve with a large enough effect; inconclusive = small, poorly fitted or top-dose-only effect; inactive = no such curve, though single readings can be large or run the other way; tested in mouse RAW 264.7 cells. A potency beside an inconclusive call is a rough fit, not a confirmed value. Potency is read from the fitted curve at half-maximal effect.", "data": [{"assay": "qHTS for Inhibitors of Cell Surface uPA Generation; also: nearly all actives have a fitted effect of over 55% in size", "conditions": "cell surface uPA generation assay; series mostly up to 38.3 µM", "outline": "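Intracellular ATP by ATPlite luminescence serves as read-out: inhibited cell-surface uPA generation prevents LF translocation, preserving ATP. Murine RAW 264.7 macrophages were treated 24 h at 37 C with five-fold serial dilutions, up to 38.3 uM final.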", "values": [{"smiles": "O=C(Nc1ccccc1)Nc1ccccc1C(=O)NCc1ccco1", "Potency": "inconclusive: 10 µM [inhibitor, partial curve, poor fit]"}, {"smiles": "O=C(CN(Cc1ccccc1)C(=O)CCl)c1cccc(Br)c1", "Potency": "inconclusive: 5.62 µM [inhibitor, partial curve, poor fit]"}, {"smiles": "COc1ccc2nc(-c3ccccc3)nc(SC)c2c1", "Potency": "inactive"}, {"smiles": "CCC[C@@H](CN[C@@H](CNC)[C@H](C)CC)NCC1CCC(C(C)(C)C)CC1", "note": "(some centres undefined)", "Potency": "inconclusive: 0.141 µM [inhibitor, full curve]"}, {"smiles": "Nc1nc(N)c(N=O)c(OCC2CCCCC2)n1", "Potency": "inconclusive: 5.01 µM [inhibitor, partial curve, poor fit]"}, {"smiles": "CCCS(=O)(=O)Nc1ccc(Nc2c3ccccc3nc3ccccc23)c(OC)c1", "Potency": "inactive"}, {"smiles": "O=Cc1ccc(OCc2cn3ccccc3n2)cc1", "Potency": "inconclusive: 31.6 µM [inhibitor, single point]"}, {"smiles": "O=C(NCc1ccccc1)NCC12CC3CC(CC(C3)C1)C2", "Potency": "inactive"}, {"smiles": "CC1=CC(=O)C(C(C)C)=C/C1=N/OS(=O)(=O)c1ccccc1", "Potency": "active: 3.98 µM"}, {"smiles": "COCCOC(=O)c1[nH]c2c(c1C)C(=O)CC(c1ccc(F)cc1)C2", "note": "(centres undefined)", "Potency": "inconclusive: 7.08 µM [inhibitor, partial curve, poor fit]"}, {"smiles": "COc1cccc(NC(=O)CCc2c(C)nn(-c3ccc(N4CCOCC4)nn3)c2C)c1", "Potency": "inactive"}, {"smiles": "CCOc1ccc(-n2ccnc2SCC(=O)N2CCCc3ccccc32)cc1", "Potency": "inactive"}, {"smiles": "Cc1cccc(NC(=O)C2CCCN(C(=O)Nc3ccc(F)cc3)C2)c1", "note": "(centres undefined)", "Potency": "inactive"}, {"smiles": "Cc1cc(=O)n2c3ccccc3n(CC(O)CN3CCN(Cc4ccccc4)CC3)c2c1C#N", "note": "(centres undefined)", "Potency": "inconclusive: 12.6 µM [inhibitor, single point]"}, {"smiles": "O=C(Nc1cccc(-c2nc3ccccc3s2)c1)c1cc(-n2cnnc2)ccc1Cl", "Potency": "inconclusive: 8.91 µM [inhibitor, partial curve]"}, {"smiles": "CCN(c1ccccc1)S(=O)(=O)c1ccc(OC)c(NC(=O)Cc2ccc(OC)c(OC)c2)c1", "Potency": "inactive"}, {"smiles": "COc1ccc([C@H]2CC(=O)C=C(c3cc(Br)ccc3OC)C2)cc1", "Potency": "inconclusive: 10 µM [inhibitor, single point]"}, {"smiles": "CCOCCn1c(SCc2cccc(C)c2)nc2c1c(=O)[nH]c(=O)n2C", "Potency": "inconclusive: 10 µM [inhibitor, single point]"}, {"smiles": "COc1ccc(-n2nc3c(N4CCC(C(=O)NCc5ccccc5C)CC4)nnc(C)c3c2C)cc1", "Potency": "inactive"}, {"smiles": "CCNCC(=O)N1c2ccccc2CCc2ccc(NC(=O)OCC)cc21", "Potency": "inactive"}, {"smiles": "CCN(CC)c1ccc(N=Cc2ccc(N(CC)CC)cc2O)cc1", "Potency": "inconclusive: 1.41 µM [inhibitor, partial curve, poor fit]"}, {"smiles": "COc1ccc2c(c1)CC/C(=C\\c1ccc(C)o1)C2=O", "Potency": "inconclusive: 12.6 µM [inhibitor, partial curve, poor fit]"}, {"smiles": "O=C(NCc1nc2ccccc2[nH]1)C1=C[C@@H](c2ccc(Br)cc2)C[C@@H](OCc2ccc(CO)cc2)O1", "Potency": "inconclusive: 12.6 µM [inhibitor, single point]"}, {"smiles": "COc1ccc(S(=O)(=O)Nc2cc(Cl)ccc2-n2cncn2)cc1", "Potency": "inconclusive: 0.501 µM [inhibitor, full curve, poor fit]"}, {"smiles": "O=C(CSc1nnc(NC(=O)c2ccccc2Cl)s1)NC1CC1", "Potency": "inconclusive: 1.41 µM [inhibitor, full curve, poor fit]"}, {"smiles": "COc1ccc(/C=C/C(=O)Nc2ccc(C34CC5CC(CC(O)(C5)C3)C4)cc2)cc1OC", "Potency": "inconclusive: 12.6 µM [inhibitor, partial curve, poor fit]"}, {"smiles": "O=C(Nc1ccc(Cl)c(Cl)c1)Nc1nccs1", "Potency": "active: 3.16 µM"}, {"smiles": "CCCCCCCNc1cccc(C)c1", "Potency": "inactive"}, {"smiles": "Cc1nn(-c2ccccc2)c(C)c1/C=C/C(=O)OCC(=O)Nc1ccc(C(N)=O)cc1", "Potency": "inconclusive: 1 µM [inhibitor, single point]"}, {"smiles": "C[C@H](CO)N1C[C@H](C)[C@H](CN(C)CC2CCCCC2)Oc2ccc(NS(=O)(=O)c3ccc(F)cc3)cc2CC1=O", "Potency": "inconclusive: 12.6 µM [inhibitor, single point]"}, {"smiles": "O=C(O)CC(CC(=O)Nc1ccc(-n2ccc(C(F)(F)F)n2)cc1)c1ccccc1", "note": "(centres undefined)", "Potency": "inactive"}, {"smiles": "CCN(c1ccccc1)S(=O)(=O)c1cnc[nH]1", "Potency": "inactive"}, {"smiles": "Cc1ccc(Cl)cc1NC(=O)c1cc2ccccc2cc1O", "Potency": "inconclusive: 28.2 µM [inhibitor, single point]"}, {"smiles": "C=C[C@@H]1c2cccc(C)c2N(S(=O)(=O)c2ccc(C)cc2)[C@H](c2ccc(OC(C)=O)cc2)C1(C#N)C#N", "Potency": "inconclusive: 12.6 µM [inhibitor, single point]"}, {"smiles": "CCc1cccc(NC(=O)COC(=O)c2cc([N+](=O)[O-])ccc2N2CCOCC2)c1", "Potency": "inconclusive: 11.2 µM [inhibitor, partial curve]"}, {"smiles": "O=C(NCc1ccco1)C1CCN(C(=O)c2cc3sccc3n2Cc2ccc(Cl)cc2)CC1", "Potency": "inconclusive: 20 µM [inhibitor, single point]"}, {"smiles": "CC(/C=C/c1ccc(Cl)o1)=C\\C(=O)O", "Potency": "inactive"}, {"smiles": "CCCOc1ccc(-c2csc(N)n2)cc1[N+](=O)[O-]", "Potency": "inactive"}, {"smiles": "O=C(Nc1ccc2c(c1)CCCN2C(=O)c1ccco1)c1cc([N+](=O)[O-])ccc1Cl", "Potency": "inconclusive: 12.6 µM [inhibitor, single point]"}, {"smiles": "CC1(C)Cc2ccccc2C(=NC(Cc2ccccc2)C(=O)O)N1", "note": "(centres undefined)", "Potency": "inactive"}, {"smiles": "COc1ccc(/C=N/NC(=O)c2cccnc2)cc1", "Potency": "inconclusive: 1.12 µM [inhibitor, partial curve, poor fit]"}, {"smiles": "CCOC(=O)C1Nc2ccc(C(F)(F)F)cc2C2c3ccccc3CC12", "note": "(centres undefined)", "Potency": "inconclusive: 10 µM [inhibitor, partial curve, poor fit]"}, {"smiles": "O=C1OC(Nc2nccs2)c2ccccc21", "note": "(centres undefined)", "Potency": "inactive"}, {"smiles": "C#CCOCCOCCOCCNc1nc(N2CCN(C(=O)CCCCCCCCCCNC(=O)[C@H](CCCCN)n3cc(CCO)nn3)CC2)nc(N2CCN(C(=O)CCCCCCCCCCNC(=O)[C@H](CCCCN)n3cc(C[C@@H](C)CC)nn3)CC2)n1", "Potency": "inconclusive: 31.6 µM [inhibitor, single point]"}]}]}
